Data on two substances can be found in publication PMC10441990.

Protein sequences, listed by entry. Tags and fused reporters are not part of them.
UniProt P08659: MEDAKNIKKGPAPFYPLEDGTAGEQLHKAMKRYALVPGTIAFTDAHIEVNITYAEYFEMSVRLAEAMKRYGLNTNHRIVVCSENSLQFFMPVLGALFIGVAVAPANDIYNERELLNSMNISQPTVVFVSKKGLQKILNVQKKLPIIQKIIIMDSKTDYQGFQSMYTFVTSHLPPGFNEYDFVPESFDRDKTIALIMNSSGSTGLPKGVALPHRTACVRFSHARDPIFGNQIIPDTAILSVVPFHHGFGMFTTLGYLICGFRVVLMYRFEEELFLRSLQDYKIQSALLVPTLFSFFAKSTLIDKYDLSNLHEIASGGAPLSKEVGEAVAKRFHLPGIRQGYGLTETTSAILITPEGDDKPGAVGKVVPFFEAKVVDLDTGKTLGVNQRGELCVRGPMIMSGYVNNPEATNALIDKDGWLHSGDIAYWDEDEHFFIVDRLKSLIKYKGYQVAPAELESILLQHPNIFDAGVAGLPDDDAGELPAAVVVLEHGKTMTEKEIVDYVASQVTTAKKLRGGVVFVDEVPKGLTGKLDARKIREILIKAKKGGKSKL
UniProt P68559: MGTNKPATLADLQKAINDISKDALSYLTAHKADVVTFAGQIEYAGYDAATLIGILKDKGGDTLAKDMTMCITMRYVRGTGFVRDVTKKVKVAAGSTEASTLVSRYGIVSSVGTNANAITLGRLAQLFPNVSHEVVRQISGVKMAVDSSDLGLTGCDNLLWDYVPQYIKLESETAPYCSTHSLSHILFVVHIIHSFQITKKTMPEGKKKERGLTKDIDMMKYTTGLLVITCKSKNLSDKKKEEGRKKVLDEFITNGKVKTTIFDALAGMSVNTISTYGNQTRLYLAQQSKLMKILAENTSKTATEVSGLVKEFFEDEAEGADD

No constants are given. Whether binding was seen depends on the method and setting. In cells and extracts the contact can be indirect.

The target of test [1] is luciferase (Luc), control of the co-IP [luciferase: P08659]. Description: co-IP; tagged proteins transiently co-expressed in N. benthamiana leaves, immunoprecipitation with an anti-GFP antibody, western blot with anti-HA, anti-Flag and anti-GFP. Background: A western blot detects proteins with antibodies after separation by electrophoresis.
Test [2] has as its target RSV CP-GFP (rice stripe virus coat protein fused to GFP) (rice stripe virus) (UniProt P68559). Described as above.

As for RSV CP-HA (from UniProt P68559 1-322), the binding result in test [1] is listed as “no binding”.

In the case of “luciferase (Luc), control of the co-IP (from UniProt P08659 1-550)”, the binding result in test [2] is “no binding”.
